Test results: patent publication US20200306295A1, “METHOD AND DEVICE FOR ANNIHILATION OF Staphylococcus aureus” (priority 2017, published 2020)
Some entries share one result that the patent states for a list of compounds.

Test system: stationary-phase MRSA
Assay: Post-antibiotic effect assay
Format: cell-based, S. aureus
Conditions: 4×MIC for one hour

**Q.** Which post-antibiotic effect does the source give for gentamicin here?
**A.** The post-antibiotic effect was less than 1 h.
